From publication PMC4967961 come the findings set out here.

The chains behind the UniProt entries cited, without tags or fusion partners. Residues count along the entry.
UniProt Q15717, 1-243, stated change not applied: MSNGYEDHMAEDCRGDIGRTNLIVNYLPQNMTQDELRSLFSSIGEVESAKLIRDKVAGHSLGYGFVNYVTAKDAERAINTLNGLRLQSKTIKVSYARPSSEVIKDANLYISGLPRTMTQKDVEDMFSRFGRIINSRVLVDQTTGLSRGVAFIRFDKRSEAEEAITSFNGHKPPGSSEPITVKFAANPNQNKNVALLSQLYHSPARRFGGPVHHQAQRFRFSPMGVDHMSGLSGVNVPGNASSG

For at least one entry, the source does not settle the construct or the ends of the probe. A weaker result is weaker than the reference pair of the same experiment.

The target of the series is HuRΔIII (ΔRRMIII) (UniProt Q15717). The experiment in a line: EMSA. Particulars: 100 nM protein; EMSA: 20 mM Tris-HCl pH 7.8, 150 mM KCl, 2 mM MgCl2, 0.1% Triton X-100, 0.5 mM DTT, heparin 5 mg/ml, BSA 1 mg/ml, 10% glycerol, on ice 15 min; 6% native PAGE, 0.5x TBE; recombinant protein; protein details: His; label: 5' 32P (end-labelled).

Consider UGGAGUGUGACAAUGGUGUUUG [miR-122 (5p)], for which the binding result was “binds more weakly”.
